Measurements as given in PubChem BioAssay AID1347076 (National Center for Advancing Translational Sciences (NCATS), 2019).
The whole screen tested about 400,000 compounds, of which about 13,000 (3.2%) were called active. The shares of active, inactive and inconclusive entries below differ from those in the screen. Calls follow the shape of the dose curve; as a rule, active = well fitted cell-killing curve with a large enough effect; inconclusive = small, poorly fitted or top-dose-only effect, or effect the other way; inactive = flat fitted curve, though single readings scatter. Potencies of inconclusive entries are doubtful fits and often do not repeat.

Assay: qHTS assay for MDR1-selective chemotherapeutics: Primary screen using the drug-selected MDR subline cells KB-V1; also: nearly all actives have a fitted effect of over 60% in size
Settings: KB-V1 MDR cells viability, CellTiter-Glo, 72 h; activity change, negative = cytotoxicity: at 46.1 µM (top of the series)
How it was run: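 KB-V1 cells (P-gp-expressing MDR subline of KB-3-1) in phenol-red-free DMEM with 10% FBS were exposed to library compounds over a concentration series for 72 h at 37 degrees C. Viability read by CellTiter-Glo luminescence; concentration-effect curves fitted after normalization.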
% is scaled to controls: 0 for no effect and ±100 for the full control effect; potency is read from the fitted curve at half-maximal effect.

Structure (SMILES)	Potency	activity change, negative = cytotoxicity
C/C(=N\NC(=O)c1cccc(S(=O)(=O)N2CCCC2)c1)c1ccccc1F	inconclusive: 16.4 µM [cytotoxic, partial curve, poor fit]	–
COc1cc(NC(=O)CSc2nnc3n2C(C)(C)Cc2ccccc2-3)cc(OC)c1	–	inactive: -17.7%
CCN(CC)C(=O)/C(=C/c1cccc([N+](=O)[O-])c1)NC(=O)c1ccco1	–	inactive: -7.35%
COCCNC(=O)CCC(=O)NNc1nc2ccccc2c2nc(-c3ccccc3)nn12	inactive	–
CCOC(=O)c1sc(NC(=O)CCN2CCN(CC)CC2)c(C(=O)OCC)c1C	–	inactive: 1.54%
Cc1nc2nc(C)c(NS(=O)(=O)c3ccc(C4CCCCC4)cc3)c(=O)n2[nH]1	inconclusive: 29.1 µM [rising, single point]	–
Cc1ccc(S(=O)(=O)Cn2nnnc2C(CC(C)C)N2CCN(C3CCCC3)CC2)cc1 (stereo not given)	inconclusive: 23.1 µM [cytotoxic, partial curve, poor fit]	–
COc1cccc(OCc2cc(C(=O)N3CCC(c4ccncc4)CC3)no2)c1	–	inactive: -8.79%
Cc1ccc(NC(=O)c2cc(S(=O)(=O)N3CCOCC3)c(Cl)cc2Cl)cc1	inconclusive: 5.17 µM [cytotoxic, partial curve]	–
Clc1cccc(/C=N/Nc2nnc(Cl)c3ccccc23)c1	–	inactive: 1.62%
Cn1nc([N+](=O)[O-])nc1N1CCN(c2ccc(F)cc2)CC1	inconclusive: 16.4 µM [cytotoxic, partial curve]	–
O=C(NC1CCCc2c1cnn2-c1ccc(F)cc1F)c1cnccn1 (stereo not given)	inconclusive: 20.6 µM [cytotoxic, single point]	–
Cc1ccc([C@@H]2C[C@H]3[C@@H](CN2S(=O)(=O)c2ccc(Cl)cc2)C(=O)C[C@@H](c2ccccc2)N3S(=O)(=O)c2ccc(C)cc2)cc1	inconclusive: 29.1 µM [rising, single point]	–
C=CCn1c(SCC(=O)c2ccccc2)nnc1-c1ccc2c(c1)OCO2	active: 20.6 µM	–
COc1cccc(CNC(=O)C(=O)NCCC2CCCCN2S(=O)(=O)c2ccccc2)c1 (stereo not given)	inconclusive: 20.6 µM [cytotoxic, single point]	–
CCCCC(CC)COC(=O)C(C#N)=C(c1ccccc1)c1ccccc1 (stereo not given)	inconclusive: 16.4 µM [cytotoxic, single point]	–
Cc1ccc(/C=c2\sc3nc(-c4cccnc4)nn3c2=O)cc1	–	inactive: 12%
CC1Cc2ccccc2N1C(=O)CNc1cccc(S(=O)(=O)N2CCCC2)c1 (stereo not given)	inconclusive: 9.2 µM [cytotoxic, partial curve]	–
Nc1c2c(nc3ccccc13)CCCC2	inactive	–
CC(C)(CNC(=O)c1cccc(S(=O)(=O)NCc2ccccc2)c1)N1CCOCC1	inconclusive: 20.6 µM [cytotoxic, single point]	–
COc1ccc2cc(C(c3nnnn3C(C)(C)C)N3CCSCC3)c(=O)[nH]c2c1 (stereo not given)	–	inactive: 7.5%
CNc1cccc(S(=O)(=O)N2CCCN(S(=O)(=O)c3ccc4c(c3)OCCO4)CC2)c1	–	inactive: -8.42%
CCc1ccc(CNC(=O)c2ccc(CSc3nc4ccncc4n3Cc3ccccc3)cc2)cc1	–	inactive: -3.03%

Full records as entered above.
Cn1nc([N+](=O)[O-])nc1N1CCN(c2ccc(F)cc2)CC1 as listed: Potency: inconclusive: 16.4 µM [cytotoxic, partial curve]
O=C(NC1CCCc2c1cnn2-c1ccc(F)cc1F)c1cnccn1 (stereo not given) as listed: Potency: inconclusive: 20.6 µM [cytotoxic, single point]

Next results:

Structure (SMILES)	Potency	activity change, negative = cytotoxicity
CC(=O)Nc1ccc(N2C(=O)CSC2c2ccccc2)cc1 (stereo not given)	inconclusive: 29.1 µM [rising, single point]	–
CCOC(=O)/C(=N\Nc1cc(Cl)ccc1Cl)N1CCOCC1	–	inactive: 0%
Cc1cccc(N2Cc3ccc(Br)cc3C2)c1	inconclusive: 5.8 µM [rising, full curve, poor fit]	–
COc1ccc(C(=O)NCCCCCCNC(=O)c2ccc(OC)cc2)cc1	–	inactive: -10.9%
Nc1nn(-c2ccccc2)c(N)c1N=Nc1ccccc1F	active: 4.61 µM	–
CC(C)c1nnc(NC(=O)C2CCN(c3cnccn3)CC2)s1	active: 23.1 µM	–
CCOC(=O)c1cc2c(OC)ccc(OC)c2n1CC(=O)c1ccccc1	–	inactive: 2.21%
COCCNC(=O)c1onc(CSc2ccc(Cl)cc2)c1C(=O)O	inconclusive: 13 µM [rising, partial curve]	–
COc1ccc(-c2n[nH]c(C)c2-c2cnn(-c3ccccc3)c2)c(O)c1	inconclusive: 20.6 µM [cytotoxic, partial curve]	–
COc1ccc(NC(=O)N(C)C[C@@H]2OCc3cn(nn3)CCCC(=O)N([C@H](C)CO)C[C@H]2C)c(OC)c1	–	inactive: -1.34%
O=C(NC1CCN(C(=S)Nc2ccccc2Cl)CC1)C1CCCCC1	inconclusive: 18.4 µM [cytotoxic, single point]	–
COc1cccc(-c2noc(CCC(=O)N3CCN(c4cc(C)ccc4C)CC3)n2)c1	–	inactive: 6.2%
N#Cc1ccc(OCC(=O)OCC(=O)Nc2sccc2C(N)=O)cc1	inconclusive: 8.2 µM [rising, partial curve]	–
CC(=NNC(=S)N1CCN(c2ccccn2)CC1)c1nccs1	inconclusive: 0.461 µM [cytotoxic, full curve, poor fit]	–
CC(=O)C1=C(O)C(=O)N(c2ccc(S(N)(=O)=O)cc2)C1c1cccc([N+](=O)[O-])c1 (stereo not given)	–	inactive: -0.146%
O=C(CNC(=O)OCc1ccccc1)Nc1ccc(F)cc1	inconclusive: 25.9 µM [rising, single point]	–
CCc1cc2c(=O)c(-c3cnn(-c4ccccc4)c3)c(C)oc2cc1OCC(=O)Nc1cccc(C)c1	inconclusive: 16.4 µM [cytotoxic, partial curve]	–
O=C(CSc1nccn1Cc1ccc(F)cc1)NC1CCCCC1	inconclusive: 29.1 µM [cytotoxic, single point]	–
O=C(NCC(c1cccs1)N1CCOCC1)c1ccccc1NS(=O)(=O)c1cc([N+](=O)[O-])ccc1Cl (stereo not given)	inconclusive: 29.1 µM [cytotoxic, single point]	–
Cc1cc(C)cc(-n2c(C)c3c(C)nnc(C)c3c2C)c1	inconclusive: 13 µM [cytotoxic, partial curve]	–
C=CCOC(=O)C1=C[C@@H](c2coc3ccccc3c2=O)C[C@@H](OCCCCO)O1	inconclusive: 7.31 µM [cytotoxic, partial curve, poor fit]	–
Cc1nc(-c2ccc(S(=O)(=O)Oc3ccc(Cl)cc3Cl)s2)cs1	inconclusive: 29.1 µM [cytotoxic, single point]	–
